Data as given in PubChem BioAssay AID1224826 (NIAID, 2016)
Test: 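Genes that change LPS-induced Tnf promoter activity in mouse macrophages when knocked down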 (primary screen). Cell system: RAW264.7 G9 macrophages from mouse bearing reporters for p65 (GFP) and the Tnf promoter (mCherry). Knock-down reagent: siRNA pool against mouse genes, 100 nM. Duration: 16 h of LPS stimulation, after 2 days of siRNA transfection. Treatment: bacterial lipopolysaccharide (Salmonella minnesota R595), 10 ng/ml. Measured: 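Imaged Tnf reporter mCherry in nuclei, minus background, normalised per plate to the median and expressed as robust z-scores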. Scale: Tnf reporter robust z-score: higher = stronger Tnf promoter reporter signal after LPS; Tnf reporter intensity: higher = stronger Tnf promoter reporter signal. Hit rule: 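Called active when robust z-score is at most -1.3, matching the median of the Tlr4 knock-down control, or over 3; control wells and wells with under 50 cells never active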. Meaning of the calls: active = Tnf reporter clearly lowered or raised; inactive = no clear change in Tnf reporter.
This is an unselected part of about 17,000 reagents. About 1,110 of all reagents (6.6%) were called active. 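Active means lowered or raised reporter signal; replicate intensities are raw and not normalised per plate.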 The numbers tell different reagents against one gene apart. Some reagents were tested in more than one well and are listed for each. No sequences are given here.

Tnf reporter robust z-score	fewer than 50 cells in well	Tnf reporter intensity, replicate 1	Tnf reporter intensity, replicate 2	Call	target gene	reagent no.
3.46	enough cells in well	229	172	active	Stag1 (STAG1 cohesin complex component)	1
0.55	enough cells in well	284	259	inactive	Ube2d1 (ubiquitin-conjugating enzyme E2D 1)	1
-1.49	enough cells in well	100	69.4	active	Igdcc4 (immunoglobulin superfamily, DCC subclass, member 4)	1
	fewer than 50 cells per well; well left out of calls	218	161	inactive	Gpbp1l1 (GC-rich promoter binding protein 1-like 1)	1
	fewer than 50 cells per well; well left out of calls	112	110	inactive	Tmc4 (transmembrane channel-like gene family 4)	1
-0.13	enough cells in well	259	191	inactive	Mxd4 (Max dimerization protein 4)	1
0.63	enough cells in well	239	190	inactive	Ckmt1 (creatine kinase, mitochondrial 1, ubiquitous)	1
0.4	enough cells in well	190	195	inactive	Cdca7 (cell division cycle associated 7)	1
0.2	enough cells in well	123	150	inactive	Rnase6 (ribonuclease, RNase A family, 6)	1
-0.03	enough cells in well	46.4	116	inactive	Or52j3 (olfactory receptor family 52 subfamily J member 3)	1
-1.42	enough cells in well	127	68.9	active	Gabpb2 (GA repeat binding protein, beta 2)	1
-1.18	enough cells in well	137	52.7	inactive	Or2y16 (olfactory receptor family 2 subfamily Y member 16)	1
0.85	enough cells in well	277	268	inactive	Hps6 (HPS6, biogenesis of lysosomal organelles complex 2 subunit 3)	1
-0.42	enough cells in well	102	80.6	inactive	Syngr3 (synaptogyrin 3)	1
0.02	enough cells in well	213	223	inactive	Ptprc (protein tyrosine phosphatase receptor type C)	1
-1.88	enough cells in well	97.4	61.2	active	Fam161b (family with sequence similarity 161, member B)	1
	fewer than 50 cells per well; well left out of calls	53.7	59.8	inactive	Ddx28 (DEAD box helicase 28)	1
1.63	enough cells in well	378	234	inactive	Acbd6 (acyl-Coenzyme A binding domain containing 6)	1
1.63	enough cells in well	260	141	inactive	Pip (prolactin induced protein)	1
0.08	enough cells in well	111	58.9	inactive	Stx4a (syntaxin 4A (placental))	1
-0.02	enough cells in well	166	193	inactive	Prl3b1 (prolactin family 3, subfamily b, member 1)	1
-1.15	enough cells in well	130	103	inactive	Adam12 (ADAM metallopeptidase domain 12)	1
0.28	enough cells in well	263	200	inactive	Pex7 (peroxisomal biogenesis factor 7)	1
-0.61	enough cells in well	183	150	inactive	Fbxo9 (F-box protein 9)	1
-0.16	enough cells in well	234	170	inactive	Ifna16 (interferon alpha 16)	1
	fewer than 50 cells per well; well left out of calls	341	148	inactive	4930556L07Rik (RIKEN cDNA 4930556L07 gene)	1
-0.09	enough cells in well	113	129	inactive	Zfp54 (zinc finger protein 54)	1
-0.96	enough cells in well	79.9	92.9	inactive	Rpl28 (ribosomal protein L28)	1
0.92	enough cells in well	246	180	inactive	Tmem268 (transmembrane protein 268)	1
-1.59	enough cells in well	119	91.6	active	Ctnna1 (catenin alpha 1)	1
0.15	enough cells in well	220	123	inactive	Zfp639 (zinc finger protein 639)	1
1.25	enough cells in well	247	277	inactive	Spint4 (serine protease inhibitor, Kunitz type 4)	1
0.4	enough cells in well	277	220	inactive	Pkp4 (plakophilin 4)	1
-0.49	enough cells in well	117	116	inactive	Pgm1 (phosphoglucomutase 1)	1
0.95	enough cells in well	351	164	inactive	Fut4 (fucosyltransferase 4)	1
2.42	enough cells in well	316	227	inactive	Or4g16 (olfactory receptor family 4 subfamily G member 16)	1
-0.32	enough cells in well	147	341	inactive	Gpr68 (G protein-coupled receptor 68)	1
1.75	enough cells in well	233	254	inactive	Naip6 (NLR family, apoptosis inhibitory protein 6)	1
0.81	enough cells in well	308	276	inactive	Ext1 (exostosin glycosyltransferase 1)	1
1.03	enough cells in well	256	120	inactive	Coprs (coordinator of PRMT5, differentiation stimulator)	1
-1.18	enough cells in well	137	158	inactive	Fgf21 (fibroblast growth factor 21)	1
-0.58	enough cells in well	187	155	inactive	Ifnar2 (interferon (alpha and beta) receptor 2)	1
	fewer than 50 cells per well; well left out of calls	256	0	inactive	Rsph3a (radial spoke 3A homolog (Chlamydomonas))	1
-0.07	enough cells in well	115	136	inactive	Rbm7 (RNA binding motif protein 7)	1
-0.75	enough cells in well	162	177	inactive	Col15a1 (collagen, type XV, alpha 1)	1
0.11	enough cells in well	302	213	inactive	Ssr2 (signal sequence receptor, beta)	1
-0.3	enough cells in well	173	158	inactive	9330154K18Rik (RIKEN cDNA 9330154K18 gene)	1
-0.03	enough cells in well	237	149	inactive	Ins2 (insulin II)	1
-0.05	enough cells in well	209	183	inactive	Hcls1 (hematopoietic cell specific Lyn substrate 1)	1
0.3	enough cells in well	267	236	inactive	Uba7 (ubiquitin-like modifier activating enzyme 7)	1
0.2	enough cells in well	217	338	inactive	Adrb1 (adrenergic receptor, beta 1)	1
0.16	enough cells in well	199	103	inactive	Emilin1 (elastin microfibril interfacer 1)	1
-0.48	enough cells in well	204	134	inactive	Cd81 (CD81 antigen)	1
-0.09	enough cells in well	265	71.9	inactive	Zfand2b (zinc finger, AN1 type domain 2B)	1
-0.03	enough cells in well	248	172	inactive	Pcna (proliferating cell nuclear antigen)	1
2.49	enough cells in well	427	139	inactive	Dzank1 (double zinc ribbon and ankyrin repeat domains 1)	1
-1.28	enough cells in well	128	66.4	inactive	Stfa2l1 (stefin A2 like 1)	1
0.32	enough cells in well	156	208	inactive	Mcpt1 (mast cell protease 1)	1
0.13	enough cells in well	209	335	inactive	Gnat1 (G protein subunit alpha transducin 1)	1
-0.18	enough cells in well	213	196	inactive	Phf6 (PHD finger protein 6)	1
0.57	enough cells in well	219	182	inactive	Ap3m1 (adaptor-related protein complex 3, mu 1 subunit)	1
0.27	enough cells in well	159	220	inactive	Patj (PATJ, crumbs cell polarity complex component)	1
	fewer than 50 cells per well; well left out of calls	71.1	82	inactive	Phb2 (prohibitin 2)	1
0.34	enough cells in well	373	63.4	inactive	Nfic (nuclear factor I/C)	1
0.03	enough cells in well	232	193	inactive	Nfic (nuclear factor I/C)	2
-0.07	enough cells in well	166	125	inactive	Or8s2 (olfactory receptor family 8 subfamily S member 2)	1
-0.35	enough cells in well	106	137	inactive	Scyl3 (SCY1-like 3 (S. cerevisiae))	1
	fewer than 50 cells per well; well left out of calls	68.2	36.6	inactive	Scyl3 (SCY1-like 3 (S. cerevisiae))	1
-0.28	enough cells in well	178	98.7	inactive	Or2w6 (olfactory receptor family 2 subfamily W member 6)	1
0.09	enough cells in well	250	186	inactive	Oaz3 (ornithine decarboxylase antizyme 3)	1
-0.57	enough cells in well	207	127	inactive	H4c16 (H4 histone 16)	1
0.08	enough cells in well	233	141	inactive	Slc2a3	1
-0.94	enough cells in well	151	35.4	inactive	Nanos2 (nanos C2HC-type zinc finger 2)	1
2.15	enough cells in well	398	131	inactive	Shq1 (SHQ1 homolog (S. cerevisiae))	1
0	enough cells in well	193	144	inactive	Nostrin (nitric oxide synthase trafficker)	1
